Laboratory results: PubChem BioAssay AID292 (DTP/NCI, 2004)
The list shows only some results of the screen, not a fair sample: it gathers tests that were run many times, whatever their T/C, doses with no T/C, and many T/C values between a quarter and a half above the control. Other doses and runs of a compound stand elsewhere. T/C gives the treated animals as a percentage of the vehicle group. Some entries give survivors of the animals treated and no T/C: the source files T/C as zero there, which appears to mark a toxic dose or a test without result, not a measured value. Some doses without a T/C left all or most animals alive at the check, yet need not have been tolerated: the source hardly ever lists a survival T/C far under the control, and the zero likely stands for such cases as well. Survivors were counted at the toxicity check, usually on the fifth day, unless a day is given; later deaths do not show. Schedule codes are those of the source, read here as Q, the interval in days (D) or hours (H), X, the number of doses. Some entries were tested several times; the values are given in rising order. Where survival is the endpoint, this PubChem deposit counts one and a half times the control or more as active, and values a quarter to a half above the control carry no call in these data; other NCI protocols may use other cut-offs. Some T/C values are followed by the survivors on the day toxicity was checked, most often the fifth; without a count, all were alive then. Signs of the kind (2×) give the number of equal values in this list.

Tested on: B6C3F1 mice, ip Sarcoma M5076, median survival T/C
Test: NCI In Vivo Anticancer Drug Screen. Data for tumor model Sarcoma M5076 (intraperitoneal) in B6C3F1 mice
Conditions: T/C endpoint: median survival time, higher T/C = longer survival
Procedure: The antitumor activity of compounds was measured in mice bearing transplantable tumors. Survival or tumor size were measured and the results are expressed as the measurement made in the treated group (T) divided by the measurement made in the vehicle treated control group (C). The tumor model used in this assay is Sarcoma M5076 (intraperitoneal) in B6C3F1 mice

[1] = dose: 400.0 mg/kg/injection, schedule: Q04DX004 (ip), vehicle: saline
[2] = dose: 800.0 mg/kg/injection, schedule: Q04DX004 (ip), vehicle: saline
[3] = dose: 400.0 mg/kg/injection, schedule: Q04DX004 (ip), vehicle: distilled water + alcohol
[4] = dose: 400.0 mg/kg/injection, schedule: Q04DX004 (ip), vehicle: Klucel (hydroxypropylcellulose) (HPC)
[5] = dose: 800.0 mg/kg/injection, schedule: Q04DX004 (ip), vehicle: Klucel (hydroxypropylcellulose) (HPC)
[6] = dose: 2.5 mg/kg/injection, schedule: Q04DX004 (ip), vehicle: sodium bicarbonate
[7] = dose: 10.0 mg/kg/injection, schedule: Q04DX005 (ip), vehicle: sodium bicarbonate
[8] = dose: 20.0 mg/kg/injection, schedule: Q04DX005 (ip), vehicle: sodium bicarbonate
[9] = dose: 40.0 mg/kg/injection, schedule: Q04DX004 (ip), vehicle: sodium bicarbonate
[10] = dose: 40.0 mg/kg/injection, schedule: Q04DX005 (ip), vehicle: sodium bicarbonate

O=C1N[C@@H]2C(=C[C@H](O)[C@@H](O)[C@H]2O)c2cc3c(c(O)c21)OCO3
T/C (dose: 0.75 mg/kg/injection, schedule: Q01DX009 (ip), vehicle: saline with Tween-80): 125 % of control | T/C (dose: 0.75 mg/kg/injection, schedule: Q04DX004 (ip), vehicle: saline with Tween-80): 144 % of control | T/C (dose: 1.5 mg/kg/injection, schedule: Q04DX004 (ip), vehicle: saline with Tween-80): 145 % of control | T/C (dose: 3.0 mg/kg/injection, schedule: Q01DX009 (ip), vehicle: saline with Tween-80): 127 % of control [6 of 9 alive on day 14] | T/C (dose: 3.0 mg/kg/injection, schedule: Q04DX004 (ip), vehicle: saline with Tween-80): 133 [8 of 10 alive on day 14] and 139 % of control | survivor count (dose: 6.0 mg/kg/injection, schedule: Q01DX009 (ip), vehicle: saline with Tween-80): 1 of 10 on day 14 | survivor count (dose: 12.0 mg/kg/injection, schedule: Q04DX004 (ip), vehicle: saline with Tween-80): 2 of 10 on day 14 and 4 of 10 on day 14

O=C(Nc1cccnc1)c1ccc([N+](=O)[O-])s1
survivor count (dose: 50.0 mg/kg/injection, schedule: Q04DX004 (ip), vehicle: saline): 10 of 10 on day 14 | survivor count (dose: 100.0 mg/kg/injection, schedule: Q04DX004 (ip), vehicle: saline): 10 of 10 on day 14 | survivor count (dose: 200.0 mg/kg/injection, schedule: Q04DX004 (ip), vehicle: saline): 10 of 10 on day 14 | survivor count [1]: 10 of 10 on day 14 | survivor count [2]: 6 of 10 on day 14

CCOc1cc2c(cc1C(C)c1ccc(OC)cc1)OCO2 (centres undefined)
survivor count [3]: 6 of 10 on day 14 | survivor count (dose: 800.0 mg/kg/injection, schedule: Q04DX004 (ip), vehicle: distilled water + alcohol): 0 of 10 on day 14

CCCCNc1ccc2nnc(C)n2n1
survivor count (dose: 400.0 mg/kg/injection, schedule: Q04DX004 (ip), vehicle: DMSO): 0 of 10 on day 14 and 4 of 10 on day 14 | survivor count (dose: 800.0 mg/kg/injection, schedule: Q04DX004 (ip), vehicle: DMSO): 0 of 10 on day 14

CC(C)CC(NC(=O)CF)C(=O)O (centres undefined)
survivor count (dose: 25.0 mg/kg/injection, schedule: Q04DX004 (ip), vehicle: saline with Tween-80): 3 of 10 on day 14

Cc1ccc(C2C(C#N)C(=O)NC(=O)C2C#N)cc1 (centres undefined)
survivor count [4]: 5 of 10 on day 14 | survivor count [5]: 0 of 10 on day 14

C=C(C)/C([O-])=N/[N+](C)(C)CC(O)CCCCCCCCCCCC (centres undefined)
survivor count (dose: 200.0 mg/kg/injection, schedule: Q04DX004 (ip), vehicle: suspension in saline): 9 of 10 on day 14

N#CC1C(=O)NC(=S)NC1c1ccc2c(c1)CCC2 (centres undefined)
survivor count [1]: 0 of 10 on day 14 | survivor count [2]: 0 of 10 on day 14

O=C(O)C(O)C(O)C1[O][Sb][O]C1C(=O)O (centres undefined)
T/C (dose: 18.75 mg/kg/injection, schedule: Q04DX004 (ip), vehicle: saline): 131 % of control [9 of 10 alive on day 14] | T/C (dose: 37.5 mg/kg/injection, schedule: Q04DX004 (ip), vehicle: saline): 132 % of control [9 of 10 alive on day 14] | T/C (dose: 75.0 mg/kg/injection, schedule: Q04DX004 (ip), vehicle: saline): 132 % of control [9 of 10 alive on day 14] | survivor count (dose: 150.0 mg/kg/injection, schedule: Q04DX004 (ip), vehicle: saline): 0 of 10 on day 14, 2 of 7 on day 14, 3 of 10 on day 14 | survivor count (dose: 300.0 mg/kg/injection, schedule: Q04DX004 (ip), vehicle: saline): 0 of 10 on day 14

Cn1nc2c(c(Cl)c1=O)Nc1ccccc1O2
survivor count (dose: 300.0 mg/kg/injection, schedule: Q04DX004 (ip), vehicle: saline with Tween-80): 10 of 10 on day 14 | survivor count (dose: 600.0 mg/kg/injection, schedule: Q04DX004 (ip), vehicle: saline with Tween-80): 9 of 10 on day 14

Cc1ccoc1
survivor count (dose: 266.6 mg/kg/injection, schedule: Q03HX012 (ip), vehicle: saline with Tween-80): 2 of 10 on day 14

N=C(N)c1ccc(N=NNc2ccc(C(=N)N)cc2)cc1
survivor count (dose: 100.0 mg/kg/injection, schedule: Q04DX004 (ip), vehicle: saline with Tween-80): 9 of 10 on day 14 | survivor count (dose: 200.0 mg/kg/injection, schedule: Q04DX004 (ip), vehicle: saline with Tween-80): 0 of 10 on day 14 | survivor count (dose: 400.0 mg/kg/injection, schedule: Q04DX004 (ip), vehicle: saline with Tween-80): 0 of 10 on day 14

O=c1c(O)c(-c2cc(O)c(O)c(O)c2)oc2cc(O)cc(O)c12
survivor count (dose: 1200.0 mg/kg/injection, schedule: Q04DX004 (ip), vehicle: saline with Tween-80): 5 of 10 on day 14

CNC(=O)OCc1nc(SC)n(C)c1COC(=O)NC
T/C (dose: 100.0 mg/kg/injection, schedule: Q04DX004 (ip), vehicle: suspension in saline): 148 % of control | survivor count [1]: 1 of 10 on day 14 | survivor count (dose: 400.0 mg/kg/injection, schedule: Q04DX004 (ip), vehicle: suspension in saline): 0 of 10 on day 14

CN(Cc1cnc2nc(N)nc(N)c2n1)c1ccc(C(=O)N[C@@H](CCC(=O)O)C(=O)O)cc1
T/C [6]: 91, 93, 100 (2×), 107, 116 % of control | survivor count [6]: 7 of 10 on day 14 | T/C (dose: 2.5 mg/kg/injection, schedule: Q04DX005 (ip), vehicle: sodium bicarbonate): 98, 100, 103, 108 % of control | T/C (dose: 5.0 mg/kg/injection, schedule: Q04DX004 (ip), vehicle: sodium bicarbonate): 95 (2×), 97 (2×), 100 (2×), 108 % of control | T/C (dose: 5.0 mg/kg/injection, schedule: Q04DX005 (ip), vehicle: sodium bicarbonate): 93, 100 (2×), 114 % of control | T/C (dose: 10.0 mg/kg/injection, schedule: Q04DX004 (ip), vehicle: sodium bicarbonate): 95, 97, 100, 105, 108, 110, 136 % of control | T/C [7]: 96, 97, 107 % of control | survivor count [7]: 10 of 10 on day 9 | T/C (dose: 20.0 mg/kg/injection, schedule: Q04DX004 (ip), vehicle: sodium bicarbonate): 89, 92, 93, 95, 96 [8 of 10 alive on day 14], 100, 112 % of control | T/C [8]: 97, 104, 132 % of control | survivor count [8]: 10 of 10 on day 9 | T/C [9]: 90 [8 of 10 alive on day 14], 100, 101, 110, 140 % of control | survivor count [9]: 6 of 10 on day 14 and 7 of 10 on day 9 | T/C [10]: 86, 91, 127 % of control | survivor count [10]: 4 of 10 on day 9

CCOC(=O)c1cn(C)c2c1C(=O)C(C(=O)OCC)CC(=O)N2 (centres undefined)
survivor count (dose: 500.0 mg/kg/injection, schedule: Q04DX004 (ip), vehicle: saline + Tween-80 + alcohol): 10 of 10 on day 14

CCC(=O)[O][Bi]([c]1ccccc1)[c]1ccccc1
survivor count (dose: 48.0 mg/kg/injection, schedule: Q04DX004 (ip), vehicle: Klucel (hydroxypropylcellulose) (HPC)): 0 of 10 on day 14 | survivor count (dose: 50.0 mg/kg/injection, schedule: Q04DX004 (ip), vehicle: Klucel (hydroxypropylcellulose) (HPC)): 10 of 10 on day 14 | survivor count (dose: 100.0 mg/kg/injection, schedule: Q04DX004 (ip), vehicle: Klucel (hydroxypropylcellulose) (HPC)): 1 of 10 on day 14 | survivor count (dose: 200.0 mg/kg/injection, schedule: Q04DX004 (ip), vehicle: Klucel (hydroxypropylcellulose) (HPC)): 0 of 10 on day 14 | survivor count [4]: 0 of 10 on day 14 | survivor count [5]: 0 of 10 on day 14

S=C1CCCCN1
survivor count (dose: 12.5 mg/kg/injection, schedule: Q04DX004 (ip), vehicle: distilled water + alcohol): 5 of 10 on day 14 | survivor count (dose: 25.0 mg/kg/injection, schedule: Q04DX004 (ip), vehicle: distilled water + alcohol): 10 of 10 on day 14 | survivor count (dose: 200.0 mg/kg/injection, schedule: Q04DX004 (ip), vehicle: distilled water + alcohol): 0 of 10 on day 14 and 1 of 10 on day 14 | survivor count [3]: 0 of 10 on day 14

O=C1N=NC2=C1c1c3ccccc3c(O)n1CC2
survivor count (dose: 400.0 mg/kg/injection, schedule: Q04DX004 (ip), vehicle: water): 10 of 10 on day 14
